Laboratory results from patent US20070232647A1, “Use of Ppar Agonists to Treat Ruminants” (priority 2004, published 2007).
At least one compound was matched to its structure with a doubt left.

Key:
[1] = test system: cows in the transition period; assay: Serum NEFA levels in transition cows (WAKO NEFA-C test kit); assay type: in vivo; details: 0.5 mg/kg, regimens T02-T04; Day 1 after calving until end of study; exception T02 on day 8; FIG. 4
[2] = test system: cows in the transition period; assay: Liver triglyceride levels in transition cows (post-calving liver biopsies); assay type: in vivo; details: 0.5 mg/kg, all treatment regimens; Days 5, 10 and 14 postcalving; FIG. 3

CC(C)(Oc1cccc([C@@H]2CCCN(C(=O)OCc3ccc(C(F)(F)F)cc3)C2)c1)C(=O)O [Compound A, (3S)-3-[3-(1-Carboxy-1-methyl-ethoxy)-phenyl]-piperidine-1-carboxylic acid 4-trifluoromethyl-benzyl ester]
serum NEFA levels as compared to controls [1]: significantly lower serum NEFA levels
liver triglyceride levels compared to placebo [2]: significantly lowered liver triglyceride levels
